According to article PMC5069690, “Hepatic 3D spheroid models for the detection and study of compounds with cholestatic liability” (Scientific Reports, 2016):

System: multi-donor PHH spheroids
Experiment: Repeated-exposure toxicity in multi-donor PHH spheroids with or without BA mixture, albumin secretion
Type: cell-based
Conditions: Homo sapiens, 336 h, multi-donor PHH spheroids (10 donors), 14 days repeated exposure, co-exposure with BA mixture
Description: The cells were seeded in PHH medium (Williams’ medium E containing 100 units/ml penicillin, 100 μg/ml streptomycin, 2 mM L-glutamine, 10 μg/ml insulin, 5.5 μg/ml transferrin, 6.7 ng/ml sodium selenite, 100 nM dexamethasone) supplemented with 10% fetal bovine serum. […] When PHH had reassembled into compact aggregates (day 4–6 after seeding), spheroids were shifted to serum-free PHH medium. […] The spheroids were maintained in serum-free PHH medium.
Toxicity studies were started at day 8 and day 5 for PHH and HepaRG spheroids, respectively.

Question: Which EC50 does the source give for `CCCCc1oc2ccccc2c1C(=O)c1cc(I)c(OCCN(CC)CC)c(I)c1` [Amiodarone, amiodarone] here?
Answer: The EC50 was 4.4 µM.
